In experiment [1] the target is T1, nYFP-AtFis1A (Arabidopsis thaliana) (UniProt Q9M1J1).
T1 sequence: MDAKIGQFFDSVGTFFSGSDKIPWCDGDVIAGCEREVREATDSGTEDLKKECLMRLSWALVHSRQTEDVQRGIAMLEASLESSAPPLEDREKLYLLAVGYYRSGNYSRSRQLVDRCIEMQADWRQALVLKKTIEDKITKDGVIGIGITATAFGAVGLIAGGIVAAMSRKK
The experiment is described as follows: split reporter; BiFC (nYFP/cYFP fusions, 35S promoter, co-agroinfiltration) in N. benthamiana leaves infected with TBSV or CIRV; confocal microscopy; includes TRV-MBP control plants.

The target of experiment [2] is T2, nYFP-AtFis1B (Arabidopsis thaliana) (UniProt Q94CK3).
T2 sequence: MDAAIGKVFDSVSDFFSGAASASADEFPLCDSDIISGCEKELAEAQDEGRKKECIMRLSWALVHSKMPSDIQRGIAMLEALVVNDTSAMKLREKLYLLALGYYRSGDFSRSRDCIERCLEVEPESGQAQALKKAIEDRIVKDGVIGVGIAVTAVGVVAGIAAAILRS
The experiment is described as above.

The target in experiment [3] is T2, nYFP-AtFis1B (Arabidopsis thaliana). Put plainly: split reporter; BiFC in mock-infected (noninfected) N. benthamiana leaves, in the absence of TBSV replication.
Experiment [4] deals with T3, yeast Fis1p, MYTH bait (S. cerevisiae) (UniProt P40515).
T3 sequence: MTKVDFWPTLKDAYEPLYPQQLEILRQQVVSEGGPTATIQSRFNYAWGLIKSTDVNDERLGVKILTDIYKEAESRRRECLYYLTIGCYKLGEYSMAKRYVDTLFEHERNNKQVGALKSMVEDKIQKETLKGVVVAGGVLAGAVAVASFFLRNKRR
The experiment is described as follows: two-hybrid; split-ubiquitin-based membrane yeast two-hybrid assay (MYTH) in yeast; bait (TBSV p33 or yeast Fis1p) co-expressed with NubG prey proteins.

In experiment [5] the target is CIRV Flag-p95^pol replication protein (carnation Italian ringspot virus (CIRV)). The experiment is described as follows: co-IP; Flag-affinity purification of Flag-tagged replication proteins (TBSV Flag-p33 + Flag-p92pol or CIRV Flag-p36 + Flag-p95pol) from the detergent-solubilized membrane fraction of yeast; samples cross-linked with formaldehyde; co-purified His6-tagged proteins detected with anti-His antibody; WT, fis1Δ, Fis1p- or Dnm1-ZZ-over-expressing yeast; cycloheximide time course.

The target in experiment [6] is CIRV Flag-p36 replication protein (carnation Italian ringspot virus (CIRV)). The description is as above.
In experiment [7] the target is CIRV p36-cYFP replication protein (carnation Italian ringspot virus (CIRV)). Put plainly: split reporter; BiFC (nYFP/cYFP fusions, 35S promoter, co-agroinfiltration) in N. benthamiana leaves infected with TBSV or CIRV; confocal microscopy; includes TRV-MBP control plants.
Experiment [8] deals with MBP-tagged TBSV p33, soluble C-terminal region (tomato bushy stunt virus (TBSV)). Put plainly: pull-down; MBP-tagged p33 or p36 C-terminal regions captured by MBP affinity; captured His6-tagged Fis1-ΔTM proteins from E. coli detected with anti-His antibody.
Experiment [9] has as its target MBP-tagged CIRV p36, soluble C-terminal region (carnation Italian ringspot virus (CIRV)). Described as above.

Results are given in words; binding and its absence hold for the method and conditions named. Binding calls can cover weak binding; strength is not graded here. For some of these results: Binding seen in cells or lysates may run through a third protein. For some of these results: Tags and fused reporters may be left off the sequences shown.

Turning to “AtSac1-cYFP (Arabidopsis thaliana) (enzyme)”, the binding entry in [1], in experiment [2] and in [3] was “binds” in each case.

Consider “Arabidopsis Sac1 protein, MYTH prey (enzyme)”, for which the binding entry in [4] is “binds”.

B1: His6-AtFis1B (protein, UniProt Q94CK3 1-167)
chain: MDAAIGKVFDSVSDFFSGAASASADEFPLCDSDIISGCEKELAEAQDEGRKKECIMRLSWALVHSKMPSDIQRGIAMLEALVVNDTSAMKLREKLYLLALGYYRSGDFSRSRDCIERCLEVEPESGQAQALKKAIEDRIVKDGVIGVGIAVTAVGVVAGIAAAILRS
Regarding B1, the binding result in experiment [5] and in experiment [6] was “binds” throughout.

B2: nYFP-AtFis1B (protein, UniProt Q94CK3 1-167)
chain: MDAAIGKVFDSVSDFFSGAASASADEFPLCDSDIISGCEKELAEAQDEGRKKECIMRLSWALVHSKMPSDIQRGIAMLEALVVNDTSAMKLREKLYLLALGYYRSGDFSRSRDCIERCLEVEPESGQAQALKKAIEDRIVKDGVIGVGIAVTAVGVVAGIAAAILRS
Consider B2, for which the binding entry in [7] is given as “binds”.

B3: His6-Fis1-ΔTM (missing the C-terminal 25 aa) (domain or fragment, UniProt P40515 1-130)
chain: MTKVDFWPTLKDAYEPLYPQQLEILRQQVVSEGGPTATIQSRFNYAWGLIKSTDVNDERLGVKILTDIYKEAESRRRECLYYLTIGCYKLGEYSMAKRYVDTLFEHERNNKQVGALKSMVEDKIQKETLK
Regarding B3, the binding entry in experiment [8] and in experiment [9] was “binds” in each case.

B4: His6-AtFis1A (protein, UniProt Q9M1J1 1-170)
chain: MDAKIGQFFDSVGTFFSGSDKIPWCDGDVIAGCEREVREATDSGTEDLKKECLMRLSWALVHSRQTEDVQRGIAMLEASLESSAPPLEDREKLYLLAVGYYRSGNYSRSRQLVDRCIEMQADWRQALVLKKTIEDKITKDGVIGIGITATAFGAVGLIAGGIVAAMSRKK
With B4, the binding result in experiment [5] and in [6] was “binds” each time.

B5: nYFP-AtFis1A (protein, UniProt Q9M1J1 1-170)
chain: MDAKIGQFFDSVGTFFSGSDKIPWCDGDVIAGCEREVREATDSGTEDLKKECLMRLSWALVHSRQTEDVQRGIAMLEASLESSAPPLEDREKLYLLAVGYYRSGNYSRSRQLVDRCIEMQADWRQALVLKKTIEDKITKDGVIGIGITATAFGAVGLIAGGIVAAMSRKK
For the molecule B5, the binding result in experiment [7] is given as “binds”.

B6: yeast His6-Sac1p (enzyme, S. cerevisiae, UniProt P32368 1-623, looked up)
chain: MTGPIVYVQNADGIFFKLAEGKGTNDAVIHLANQDQGVRVLGAEEFPVQGEVVKIASLMGFIKLKLNRYAIIANTVEETGRFNGHVFYRVLQHSIVSTKFNSRIDSEEAEYIKLLELHLKNSTFYFSYTYDLTNSLQRNEKVGPAASWKTADERFFWNHYLTEDLRNFAHQDPRIDSFIQPVIYGYAKTVDAVLNATPIVLGLITRRSIFRAGTRYFRRGVDKDGNVGNFNETEQILLAENPESEKIHVFSFLQTRGSVPIYWAEINNLKYKPNLVLGENSLDATKKHFDQQKELYGDNYLVNLVNQKGHELPVKEGYESVVHALNDPKIHYVYFDFHHECRKMQWHRVKLLIDHLEKLGLSNEDFFHKVIDSNGNTVEIVNEQHSVVRTNCMDCLDRTNVVQSVLAQWVLQKEFESADVVATGSTWEDNAPLLTSYQNLWADNADAVSVAYSGTGALKTDFTRTGKRTRLGAFNDFLNSASRYYQNNWTDGPRQDSYDLFLGGFRPHTASIKSPFPDRRPVYIQLIPMIICAALTVLGATIFFPKDRFTSSKNLLYFAGASIVLALSTKFMFKNGIQFVNWPKLVDVGFLVVHQTHDKEQQFKGLKYAQSPKFSKPDPLKRD
notes: Sac1p PI4P phosphatase, S. cerevisiae; source: yeast, expressed from a plasmid, in detergent-solubilized membrane fraction
Take B6: the binding entry in experiment [5] and in [6] was “binds” in each case.

B7: yeast His6-Fis1p (natural protein, S. cerevisiae, UniProt P40515 1-155, looked up)
chain: MTKVDFWPTLKDAYEPLYPQQLEILRQQVVSEGGPTATIQSRFNYAWGLIKSTDVNDERLGVKILTDIYKEAESRRRECLYYLTIGCYKLGEYSMAKRYVDTLFEHERNNKQVGALKSMVEDKIQKETLKGVVVAGGVLAGAVAVASFFLRNKRR
notes: Fis1p mitochondrial fission 1 protein, S. cerevisiae; also called HisScFis1; source: yeast, expressed from a plasmid, in detergent-solubilized membrane fraction
As to B7, the binding result in [5] and in experiment [6] was “binds” throughout.

Source of the values: paper PMC7997005, “Dynamic interplay between the co-opted Fis1 mitochondrial fission protein and membrane contact site proteins in supporting tombusvirus replication” (PLoS Pathogens, 2021).
